From US10391076B2, “Anti-cancer agent comprising aminoacetonitrile compound as active ingredient” (Pitney Pharmaceuticals Pty Limited, priority 2015, dated 2019)
Some results were stated once for a whole list of compounds, not compound by compound. For at least one compound, name, drawing or mass did not settle the structure.

Key:
Assay type in all cases: cell-based
[1] = system: human breast cancer cell line (MCF-7); experiment: MCF-7 cell proliferation inhibitory activity test (sulforhodamine B); details: 30 μM, 72 hr culture
mesothelioma (PET) = experiment: Cell proliferation inhibition test, mesothelioma (PET); details: 30 μM, same manner as Example 1
stomach cancer (MKN45) = experiment: Cell proliferation inhibition test, stomach cancer (MKN45); details: 30 M (so in the source), similar to Example 1
colon cancer (HT-295m21) = experiment: Cell proliferation inhibition test, colon cancer (HT-295m21); details: 30 μM, similar to Example 1

Cc1ccc(C(=O)NC(C)(C#N)COc2cc(C#N)ccc2C(F)(F)F)s1 (stereo not shown) [6-94]
not less than 50%: cell proliferation inhibitory effect against MCF-7 [1] | cell proliferation inhibitory effect against PET (mesothelioma (PET)) | cell proliferation inhibitory effect against MKN45 (stomach cancer (MKN45)) | cell proliferation inhibitory effect against HT-295m21 (colon cancer (HT-295m21))

Cc1ccc(-c2nc(C)c(C(=O)NC(C)(C#N)COc3ccc(SC(F)(F)F)cc3)s2)cc1 (stereo not shown) [6-27]
not less than 50%: cell proliferation inhibitory effect against MCF-7 [1] | cell proliferation inhibitory effect against PET (mesothelioma (PET)) | cell proliferation inhibitory effect against MKN45 (stomach cancer (MKN45)) | cell proliferation inhibitory effect against HT-295m21 (colon cancer (HT-295m21))

COc1ccc(-n2cnc(C(=O)NC(C)(C#N)COc3ccc(SC(F)(F)F)cc3)n2)cc1 (stereo not shown) [6-81]
not less than 50%: cell proliferation inhibitory effect against MCF-7 [1] | cell proliferation inhibitory effect against PET (mesothelioma (PET)) | cell proliferation inhibitory effect against MKN45 (stomach cancer (MKN45)) | cell proliferation inhibitory effect against HT-295m21 (colon cancer (HT-295m21))

CC(C#N)(COc1ccc(SC(F)(F)F)cc1)NC(=O)c1ccsc1 (stereo not shown) [6-87]
not less than 50%: cell proliferation inhibitory effect against MCF-7 [1] | cell proliferation inhibitory effect against PET (mesothelioma (PET)) | cell proliferation inhibitory effect against MKN45 (stomach cancer (MKN45)) | cell proliferation inhibitory effect against HT-295m21 (colon cancer (HT-295m21))

Cc1nn(C)c(C(=O)NC(C)(C#N)COc2ccccc2Cl)c1Cl (stereo not shown) [5-53]
not less than 50%: cell proliferation inhibitory effect against MCF-7 [1] | cell proliferation inhibitory effect against PET (mesothelioma (PET)) | cell proliferation inhibitory effect against MKN45 (stomach cancer (MKN45)) | cell proliferation inhibitory effect against HT-295m21 (colon cancer (HT-295m21))

Cn1nc(C(F)(F)F)c(C(=O)NC(C)(C#N)COc2ccc(SC(F)(F)F)cc2)c1Oc1ccccc1 (stereo not shown) [5-48]
not less than 50%: cell proliferation inhibitory effect against MCF-7 [1] | cell proliferation inhibitory effect against PET (mesothelioma (PET)) | cell proliferation inhibitory effect against MKN45 (stomach cancer (MKN45)) | cell proliferation inhibitory effect against HT-295m21 (colon cancer (HT-295m21))

Cc1nn(C)c(C(=O)NC(C)(C#N)COc2ccc(SC(F)(F)F)cc2)c1Cl (stereo not shown) [5-54]
not less than 50%: cell proliferation inhibitory effect against MCF-7 [1] | cell proliferation inhibitory effect against PET (mesothelioma (PET)) | cell proliferation inhibitory effect against MKN45 (stomach cancer (MKN45)) | cell proliferation inhibitory effect against HT-295m21 (colon cancer (HT-295m21))

CC(C#N)(COc1ccc(SC(F)(F)F)cc1)NC(=O)c1ccc(C(F)(F)F)nc1 (stereo not shown) [5-18]
not less than 50%: cell proliferation inhibitory effect against MCF-7 [1] | cell proliferation inhibitory effect against PET (mesothelioma (PET)) | cell proliferation inhibitory effect against MKN45 (stomach cancer (MKN45)) | cell proliferation inhibitory effect against HT-295m21 (colon cancer (HT-295m21))

Cc1nc(C(F)(F)F)c(C(=O)NC(C)(C#N)COc2cc(C#N)ccc2C(F)(F)F)s1 (stereo not shown) [6-19]
not less than 50%: cell proliferation inhibitory effect against MCF-7 [1] | cell proliferation inhibitory effect against PET (mesothelioma (PET)) | cell proliferation inhibitory effect against MKN45 (stomach cancer (MKN45)) | cell proliferation inhibitory effect against HT-295m21 (colon cancer (HT-295m21))

COc1cc(C(=O)NC(C)(C#N)COc2ccc(SC(F)(F)F)cc2)cc(Cl)n1 (stereo not shown) [5-21]
not less than 50%: cell proliferation inhibitory effect against MCF-7 [1] | cell proliferation inhibitory effect against PET (mesothelioma (PET)) | cell proliferation inhibitory effect against MKN45 (stomach cancer (MKN45)) | cell proliferation inhibitory effect against HT-295m21 (colon cancer (HT-295m21))
